Assay results from paper PMC12442443, “Identifying interactions between TDP‐43's N‐terminal and RNA‐binding domains” (Protein Science : A Publication of the Protein Society, 2024).
Negatives hold for the conditions tested.

Sequences of proteins named here, by UniProt entry; tags and fusion partners are left off. Residues count along the entry.
UniProt Q13148, 102-260: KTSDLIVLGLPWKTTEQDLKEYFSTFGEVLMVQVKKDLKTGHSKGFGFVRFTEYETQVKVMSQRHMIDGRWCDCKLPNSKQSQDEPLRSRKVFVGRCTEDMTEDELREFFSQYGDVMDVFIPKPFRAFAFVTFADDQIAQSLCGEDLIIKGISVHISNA

Biological target: TDP-43 102-260 (RRM1-RRM2) (Homo sapiens) (UniProt Q13148)
Experiment: MST
Details: fits non-binder model, authors report binding by HTRF; recombinant protein

UGUGUGUG [(UG)4]
binding result: no binding
